Test results reported in paper PMC5031805.
These are yes or no findings as the source states them, for the method shown. In cells and extracts the contact can be indirect. Some binding calls cover weakened binding; strength is not graded here. Tags and fused reporters may be left off the sequences shown.

Protein sequences, listed by entry. Tags and fused reporters are not part of them.
UniProt Q15691: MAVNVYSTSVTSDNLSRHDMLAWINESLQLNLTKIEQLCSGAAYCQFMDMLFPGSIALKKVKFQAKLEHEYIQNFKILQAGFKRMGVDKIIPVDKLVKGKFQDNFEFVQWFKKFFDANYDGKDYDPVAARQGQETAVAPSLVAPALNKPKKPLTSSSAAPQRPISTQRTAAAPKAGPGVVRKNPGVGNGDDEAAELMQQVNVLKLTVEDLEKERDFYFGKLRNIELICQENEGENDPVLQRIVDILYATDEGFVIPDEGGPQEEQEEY

Target: GFP-EB1 (UniProt Q15691)
Experiment: co-IP; HeLa cell extracts, co-transfected HA-KLHL21 with GFP-EB1 or GFP; GFP-fused proteins precipitated with GFP-Trap agarose beads (legend: anti-GFP antibodies), 2 h at 4 °C, washed five times with TBS-T; immunoblot with anti-GFP and HA antibodies

- binding: binds
B1: HA-KLHL21 (protein, UniProt Q9UJP4 1-597)
chain: MERPAPLAVLPFSDPAHALSLLRGLSQLRAERKFLDVTLEAAGGRDFPAHRAVLAAASPYFRAMFAGQLRESRAERVRLHGVPPDMLQLLLDFSYTGRVAVSGDNAEPLLRAADLLQFPAVKEACGAFLQQQLDLANCLDMQDFAEAFSCSGLASAAQRFILRHVGELGAEQLERLPLARLLRYLRDDGLCVPKEEAAYQLALRWVRADPPRRAAHWPQLLEAVRLPFVRRFYLLAHVEAEPLVARCPPCLRLLREARDFQAARYDRHDRGPCPRMRPRPSTGLAEILVLVGGCDQDCDELVTVDCYNPQTGQWRYLAEFPDHLGGGYSIVALGNDIYVTGGSDGSRLYDCVWRYNSSVNEWAEVAPMLKAREYHSSSVLDGLLYVVAADSTERYDHTTDSWEALQPMTYPMDNCSTTACRGRLYAIGSLAGKETMVMQCYDPDTDLWSLVDCGQLPPWSFAPKTATLNGLMYFVRDDSAEVDVYNPTRNEWDKIPSMNQVHVGGSLAVLGGKLYVSGGYDNTFELSDVVEAYDPETRAWSVVGRLPEPTFWHGSVSIFRQFMPQTFSGGRGFELDSGSDDMDPGRPRPPRDPDELH
